Laboratory results reported in article PMC2946563.

Sequences of proteins named here, by UniProt entry; tags and fusion partners are left off.
UniProt Q70E73: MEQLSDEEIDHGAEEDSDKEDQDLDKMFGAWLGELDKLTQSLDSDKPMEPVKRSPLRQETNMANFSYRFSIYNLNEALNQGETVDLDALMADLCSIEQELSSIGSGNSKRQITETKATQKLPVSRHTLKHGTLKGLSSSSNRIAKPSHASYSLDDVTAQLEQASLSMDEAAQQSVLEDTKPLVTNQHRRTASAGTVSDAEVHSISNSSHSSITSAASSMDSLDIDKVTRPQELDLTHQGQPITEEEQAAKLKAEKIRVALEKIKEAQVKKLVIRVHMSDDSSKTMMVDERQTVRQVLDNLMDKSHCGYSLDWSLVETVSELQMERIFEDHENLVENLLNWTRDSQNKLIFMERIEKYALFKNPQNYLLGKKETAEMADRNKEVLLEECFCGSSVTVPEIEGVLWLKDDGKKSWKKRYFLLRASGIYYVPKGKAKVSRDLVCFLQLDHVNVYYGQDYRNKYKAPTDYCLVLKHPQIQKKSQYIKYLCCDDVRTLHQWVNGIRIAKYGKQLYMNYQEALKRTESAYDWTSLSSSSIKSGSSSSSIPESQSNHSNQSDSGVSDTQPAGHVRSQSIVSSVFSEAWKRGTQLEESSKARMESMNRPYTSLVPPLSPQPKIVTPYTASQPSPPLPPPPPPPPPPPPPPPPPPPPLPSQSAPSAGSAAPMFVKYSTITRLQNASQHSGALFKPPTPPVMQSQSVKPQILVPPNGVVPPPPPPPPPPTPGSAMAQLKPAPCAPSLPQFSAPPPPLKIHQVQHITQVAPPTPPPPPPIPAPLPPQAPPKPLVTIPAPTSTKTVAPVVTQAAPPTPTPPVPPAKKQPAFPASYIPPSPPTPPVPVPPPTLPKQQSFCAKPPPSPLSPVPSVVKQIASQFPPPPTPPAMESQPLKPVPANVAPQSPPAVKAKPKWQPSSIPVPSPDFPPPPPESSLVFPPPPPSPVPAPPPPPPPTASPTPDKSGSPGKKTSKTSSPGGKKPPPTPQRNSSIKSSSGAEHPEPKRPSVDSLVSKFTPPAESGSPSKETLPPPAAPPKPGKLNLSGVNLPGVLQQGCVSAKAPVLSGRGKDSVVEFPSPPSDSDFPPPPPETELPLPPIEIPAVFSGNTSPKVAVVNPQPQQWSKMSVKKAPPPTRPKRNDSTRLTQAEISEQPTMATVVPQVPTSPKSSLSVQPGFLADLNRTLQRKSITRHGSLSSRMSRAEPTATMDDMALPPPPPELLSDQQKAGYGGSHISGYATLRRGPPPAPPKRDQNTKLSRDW

Biological target: GST-Lpd (Lamellipodin), not phosphorylated by c-Abl (expressed without c-Abl or with kinase-inactive c-Abl) (UniProt Q70E73)
Assay: pull-down; GST-Lpd co-transfected with tagged EVL, Mena or VASP and wild-type or kinase-inactive c-Abl in HEK293FT; GST buffer; glutathione beads; western blot with EVL, Mena or VASP antibodies (Figure 3A-C)

binding: binds
Substance: Mena (tagged, transfected) (from UniProt Q03173-3)

Results are given in words; binding and its absence hold for the method and conditions named. Binding seen in cells or lysates may run through a third protein. Binding calls can cover weak binding; strength is not graded here.
